Test results reported in patent US12319694B2, “Heterocyclic nitrogen-containing purine derivatives, pharmaceutical preparations containing these derivatives and their use in neuroprotection” (UNIVERZITA PALACKEHO, priority 2019, dated 2025).

Test system: SH-SY5Y human neuroblastoma cell line
Test: Oxidative stress measurement (dihydroethidium, superoxide) in SH-SY5Y, salsolinol-induced model of PD
Format: cell-based
Details: 10 μM compound with SAL 500 μM, 6 h, read-out: Oxidative stress (% of control)
Protocol: The assay was performed in 96-well microplate with 7000 cells/well. Next day, SH-SY5Y underwent differentiation protocol for 48 h see above. Treatment procedure remained the same as in previous section (Cell treatment and viability/cytotoxicity assays). Additionally, oxidative stress (OS) inducers such as 6-hydroxydopamine (6-OHDA) and glutamate (Glu) alone were used as […]. Negative controls determined threshold of excessive OS. […] After 30 minutes, DHE was read at 500 nm/580 nm (excitation/emission). DHE is cell permeable dye which is selective toward superoxide radical detection.

COc1cc2c(cc1OC)C(=O)C(CC1CCN(Cc3ccccc3)CC1)C2 (stereo not shown) [Donepezil, reference compound] gave an activity at 10 µM of 120%.
